PubChem BioAssay AID1259326 – Drosophila RNAi Screening Center | 2017
Here is a random part of 573 reagents tested. 39 of all reagents (6.8%) count as active. 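All actives have raised ATP, meaning more surviving cells; in these data active calls sit at averaged z-scores near 1.5 or above.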 The raw values are shown without normalisation. The record does not give: the amount of reagent.

Purpose: 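Autophagy genes whose loss alters cell survival in toxic zinc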
Cells: Drosophila S2R+ cells
Reagents: long dsRNA against Drosophila genes
Time to read-out: about 5 days (4 days of RNAi, then 1 day of zinc)
Conditions: zinc chloride added to 15 mM final for one day
Measured: 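Luminescent ATP signal marks surviving cells, read after RNAi for 4 days then 15 mM zinc chloride for 1 day; z-scores are replicate means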
Reading the numbers: averaged z-score: higher = more ATP than other wells, i.e. more surviving cells, after zinc; ATP luminescence: higher = more ATP, i.e. more surviving cells
Call rule: 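Active if the averaged z-score exceeds 1.5 or falls under -1.5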

target | DRSC id | averaged z-score | ATP luminescence, replicate 1 | ATP luminescence, replicate 2 | Call
pic (GeneID 41611) | DRSC16639 | 4.21 | 1.80e5 | 1.59e5 | active
pic (GeneID 41611) | DRSC31603 | 4.29 | 1.81e5 | 1.29e5 | active
pic (GeneID 41611) | DRSC31604 | 4 | 1.39e5 | 1.54e5 | active
Gp93 (GeneID 43354) | DRSC15827 | 0.717 | 1.11e5 | 89653 | inactive
Gp93 (GeneID 43354) | DRSC27798 | -0.313 | 73100 | 73220 | inactive
Gp93 (GeneID 43354) | DRSC41225 | -0.239 | 60512 | 80818 | inactive
Mtpbeta (GeneID 37784) | DRSC04663 | -0.766 | 82602 | 88383 | inactive
Mtpbeta (GeneID 37784) | DRSC41251 | -0.149 | 60760 | 80750 | inactive
Mtpbeta (GeneID 37784) | DRSC41252 | 0.282 | 73613 | 77304 | inactive
GCS2alpha (GeneID 49953) | DRSC21036 | -0.431 | 90545 | 66754 | inactive
GCS2alpha (GeneID 49953) | DRSC39381 | -0.404 | 71265 | 75141 | inactive
GCS2alpha (GeneID 49953) | DRSC39411 | -0.14 | 63479 | 71848 | inactive
Pi3K59F (GeneID 37733) | DRSC28890 | -0.176 | 84232 | 79412 | inactive
Pi3K59F (GeneID 37733) | DRSC36696 | 0.522 | 96728 | 81333 | inactive
Pi3K59F (GeneID 37733) | DRSC37321 | -0.332 | 52538 | 75293 | inactive
Cul3 (GeneID 34896) | DRSC27885 | 0.613 | 1.13e5 | 93782 | inactive
Cul3 (GeneID 34896) | DRSC38391 | -0.278 | 76307 | 72817 | inactive
Cul3 (GeneID 34896) | DRSC41214 | 0.0243 | 70287 | 78023 | inactive
Cul3 (GeneID 34896) | DRSC41215 | -0.448 | 62347 | 71282 | inactive
SMC3 (GeneID 32627) | DRSC20227 | 0.624 | 84609 | 1.09e5 | inactive
SMC3 (GeneID 32627) | DRSC41163 | 0.212 | 76307 | 85381 | inactive
NANS (GeneID 41528) | DRSC27626 | -0.141 | 90819 | 79909 | inactive
NANS (GeneID 41528) | DRSC34856 | -0.147 | 76102 | 74935 | inactive
NANS (GeneID 41528) | DRSC41242 | 0.16 | 65074 | 84702 | inactive
car (GeneID 32947) | DRSC26230 | 0.0556 | 96206 | 80698 | inactive
car (GeneID 32947) | DRSC40940 | -0.504 | 70824 | 67852 | inactive
Rab14 (GeneID 34840) | DRSC03403 | -0.41 | 88555 | 65811 | inactive
Rab14 (GeneID 34840) | DRSC28941 | -0.131 | 78160 | 72071 | inactive
Rab14 (GeneID 34840) | DRSC41235 | -0.0664 | 70150 | 78554 | inactive
Atg18a (GeneID 38913) | DRSC10943 | 0.522 | 1.10e5 | 72483 | inactive
Atg18a (GeneID 38913) | DRSC31850 | -0.146 | 98305 | 70870 | inactive
Atg18a (GeneID 38913) | DRSC31851 | 0.523 | 91025 | 92690 | inactive
Mtpalpha (GeneID 34276) | DRSC01994 | 0.875 | 1.12e5 | 90442 | inactive
Mtpalpha (GeneID 34276) | DRSC37108 | -0.295 | 76119 | 78400 | inactive
Mtpalpha (GeneID 34276) | DRSC41187 | 0.151 | 73374 | 82517 | inactive
Ras85D (GeneID 41140) | DRSC16814 | -0.245 | 78005 | 79155 | inactive
Ras85D (GeneID 41140) | DRSC31009 | -0.193 | 64628 | 70682 | inactive
Ras85D (GeneID 41140) | DRSC39132 | -0.0226 | 91128 | 60898 | inactive
CG8036 (GeneID 41027) | DRSC16366 | -0.289 | 73803 | 1.01e5 | inactive
CG8036 (GeneID 41027) | DRSC41201 | -0.347 | 61815 | 74163 | inactive
Vps16A (GeneID 41107) | DRSC16422 | -0.142 | 96087 | 72328 | inactive
Vps16A (GeneID 41107) | DRSC36082 | 0.126 | 82105 | 70963 | inactive
Ciao1 (GeneID 36655) | DRSC06170 | 0.136 | 1.04e5 | 75621 | inactive
Ciao1 (GeneID 36655) | DRSC33824 | -0.455 | 80853 | 62509 | inactive
Ciao1 (GeneID 36655) | DRSC41210 | -0.431 | 63599 | 70219 | inactive
br (GeneID 44505) | DRSC25765 | 0.17 | 79052 | 86479 | inactive
br (GeneID 44505) | DRSC40672 | 0.78 | 1.02e5 | 87440 | inactive
Pten (GeneID 43991) | DRSC03402 | -0.165 | 1.00e5 | 74712 | inactive
Pten (GeneID 43991) | DRSC29950 | -0.196 | 77508 | 75501 | inactive
Eip74EF (GeneID 39962) | DRSC23794 | -0.21 | 1.00e5 | 72294 | inactive
Eip74EF (GeneID 39962) | DRSC40711 | -0.342 | 79892 | 61026 | inactive
ValRS-m (GeneID 39023) | DRSC10535 | -0.613 | 83066 | 88572 | inactive
ValRS-m (GeneID 39023) | DRSC41193 | -0.128 | 73134 | 69087 | inactive
Rab6 (GeneID 34636) | DRSC03404 | -0.887 | 81826 | 60220 | inactive
Rab6 (GeneID 34636) | DRSC25636 | -0.136 | 80252 | 68041 | inactive
Rab6 (GeneID 34636) | DRSC41237 | -0.288 | 63202 | 70424 | inactive
Orp8 (GeneID 42412) | DRSC15712 | 0.86 | 1.09e5 | 90219 | inactive
Orp8 (GeneID 42412) | DRSC28849 | -0.161 | 79926 | 64919 | inactive
Orp8 (GeneID 42412) | DRSC41185 | 0.0632 | 72997 | 82928 | inactive
Pgk (GeneID 33461) | DRSC26595 | -0.6 | 87920 | 63016 | inactive
Pgk (GeneID 33461) | DRSC34586 | 0.19 | 75896 | 75553 | inactive
Pgk (GeneID 33461) | DRSC34587 | -0.131 | 80370 | 77645 | inactive
Atg3 (GeneID 40044) | DRSC21758 | 0.615 | 1.11e5 | 91893 | inactive
Atg3 (GeneID 40044) | DRSC29687 | -0.294 | 75295 | 72706 | inactive
Atg3 (GeneID 40044) | DRSC41157 | -0.315 | 61558 | 73735 | inactive
scf (GeneID 38145) | DRSC08735 | 0.0257 | 83632 | 81041 | inactive
scf (GeneID 38145) | DRSC41243 | 0.00543 | 72603 | 75038 | inactive
alc (GeneID 35931) | DRSC23316 | 0.0647 | 80784 | 81916 | inactive
alc (GeneID 35931) | DRSC33285 | 0.498 | 73856 | 84609 | inactive
alc (GeneID 35931) | DRSC33286 | 0.028 | 82722 | 79275 | inactive
